Results on 5 molecules are retold here after paper PMC11789580.

No constants are given. Whether binding was seen depends on the method and setting. In cells and extracts the contact can be indirect. Some binding calls cover weakened binding; strength is not graded here. Sequences can lack the tags named with a protein.

Test [1] has as its target T1, MORF2-FLAG (Arabidopsis) (UniProt O22793).
T1 sequence: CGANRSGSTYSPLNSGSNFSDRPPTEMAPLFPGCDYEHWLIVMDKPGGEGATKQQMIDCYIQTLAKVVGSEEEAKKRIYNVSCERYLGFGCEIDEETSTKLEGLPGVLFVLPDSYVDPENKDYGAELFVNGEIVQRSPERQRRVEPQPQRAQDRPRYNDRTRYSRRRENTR
The test is described as follows: co-IP; MORF2-FLAG with HA-tagged MORF proteins, with or without RPOTp-GFP; anti-FLAG magnetic beads; blots with anti-HA, anti-FLAG or anti-GFP.

Test [2] concerns the target T2, RPOTp-FLAG (Arabidopsis) (UniProt O24600).
T2 sequence: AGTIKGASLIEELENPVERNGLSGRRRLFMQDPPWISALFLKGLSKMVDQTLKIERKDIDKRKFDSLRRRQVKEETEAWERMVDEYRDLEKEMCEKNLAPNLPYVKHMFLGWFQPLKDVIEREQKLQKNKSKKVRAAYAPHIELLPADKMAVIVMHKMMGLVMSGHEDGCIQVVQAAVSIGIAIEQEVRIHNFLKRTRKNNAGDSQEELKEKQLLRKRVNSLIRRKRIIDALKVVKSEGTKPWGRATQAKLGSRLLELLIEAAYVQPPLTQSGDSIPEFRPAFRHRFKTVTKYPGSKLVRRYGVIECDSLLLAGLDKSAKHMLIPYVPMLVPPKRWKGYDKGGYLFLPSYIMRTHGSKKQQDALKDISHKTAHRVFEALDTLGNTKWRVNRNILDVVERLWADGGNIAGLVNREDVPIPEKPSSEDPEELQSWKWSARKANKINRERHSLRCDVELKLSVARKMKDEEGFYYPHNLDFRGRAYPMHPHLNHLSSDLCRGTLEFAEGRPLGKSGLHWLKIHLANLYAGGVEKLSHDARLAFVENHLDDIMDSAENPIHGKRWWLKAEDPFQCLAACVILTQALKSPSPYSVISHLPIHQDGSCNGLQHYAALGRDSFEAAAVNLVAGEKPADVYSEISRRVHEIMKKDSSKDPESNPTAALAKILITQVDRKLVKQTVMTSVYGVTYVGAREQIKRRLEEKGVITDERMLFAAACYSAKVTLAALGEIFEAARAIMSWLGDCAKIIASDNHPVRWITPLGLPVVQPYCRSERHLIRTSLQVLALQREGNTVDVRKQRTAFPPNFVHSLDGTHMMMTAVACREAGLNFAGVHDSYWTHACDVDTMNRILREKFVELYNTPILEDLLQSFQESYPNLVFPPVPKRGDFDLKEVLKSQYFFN
The test is described as follows: co-IP; RPOTp-FLAG and HA-tagged proteins co-infiltrated into Nicotiana benthamiana leaves; lysate on anti-FLAG M2 magnetic beads 2 h at 4 °C, eluted with 3xFLAG peptide; blots with anti-FLAG and anti-HA.

In test [3] the target is T3, MORF2-cLUC (in Arabidopsis protoplasts) (Arabidopsis) (UniProt O22793).
T3 sequence: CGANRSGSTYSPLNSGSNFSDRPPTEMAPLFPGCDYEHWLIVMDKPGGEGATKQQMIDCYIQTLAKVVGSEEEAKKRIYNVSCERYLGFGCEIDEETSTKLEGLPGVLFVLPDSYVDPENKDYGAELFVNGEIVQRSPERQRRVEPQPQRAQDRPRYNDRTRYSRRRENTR
The test is described as follows: split reporter; firefly luciferase complementation with Renilla luciferase as internal control, one pUC19 plasmid (15 µg) in protoplasts of Col-0 and of the sca3-2 mutant, 16-20 h dark at 22 °C; ratio firefly/Renilla.

The target of test [4] is T4, MORF2-nLUC (Arabidopsis) (UniProt O22793).
T4 sequence: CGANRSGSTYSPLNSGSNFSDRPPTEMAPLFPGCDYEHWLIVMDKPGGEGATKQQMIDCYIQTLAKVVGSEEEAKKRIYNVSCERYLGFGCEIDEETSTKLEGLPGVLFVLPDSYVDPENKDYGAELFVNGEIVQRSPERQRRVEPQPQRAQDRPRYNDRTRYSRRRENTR
As to the kind of experiment: split reporter; LCI of MORF2-nLUC with MORF-cLUC fusions in tobacco leaf epidermal cells, with RPOTp or with OZ1 (control) co-expressed / in the presence or absence of RPOTp.

The target in test [5] is T5, RPOTp-nLUC (Arabidopsis) (UniProt O24600).
T5 sequence: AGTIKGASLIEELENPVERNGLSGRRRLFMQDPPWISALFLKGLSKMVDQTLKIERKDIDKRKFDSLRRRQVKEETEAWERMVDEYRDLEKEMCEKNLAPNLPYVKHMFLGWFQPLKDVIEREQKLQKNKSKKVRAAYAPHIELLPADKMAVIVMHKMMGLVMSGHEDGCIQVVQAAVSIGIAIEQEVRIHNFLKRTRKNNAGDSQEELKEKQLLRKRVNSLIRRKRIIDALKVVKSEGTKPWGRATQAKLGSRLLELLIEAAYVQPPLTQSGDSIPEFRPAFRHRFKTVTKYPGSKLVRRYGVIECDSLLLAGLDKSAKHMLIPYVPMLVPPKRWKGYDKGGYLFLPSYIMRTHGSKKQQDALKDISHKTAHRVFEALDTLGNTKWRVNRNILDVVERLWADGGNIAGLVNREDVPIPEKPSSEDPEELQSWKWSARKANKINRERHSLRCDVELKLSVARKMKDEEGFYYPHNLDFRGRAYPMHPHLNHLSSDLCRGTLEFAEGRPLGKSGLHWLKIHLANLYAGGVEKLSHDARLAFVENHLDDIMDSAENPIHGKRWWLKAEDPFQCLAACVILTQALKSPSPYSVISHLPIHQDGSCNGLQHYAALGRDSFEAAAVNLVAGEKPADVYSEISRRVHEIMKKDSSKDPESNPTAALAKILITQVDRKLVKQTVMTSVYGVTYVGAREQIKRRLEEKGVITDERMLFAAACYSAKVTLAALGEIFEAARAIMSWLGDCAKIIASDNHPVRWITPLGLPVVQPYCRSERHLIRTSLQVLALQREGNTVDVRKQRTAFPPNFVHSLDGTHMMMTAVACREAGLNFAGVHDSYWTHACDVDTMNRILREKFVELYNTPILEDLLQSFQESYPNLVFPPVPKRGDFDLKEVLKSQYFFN
The test is described as follows: split reporter; firefly luciferase complementation imaging (LCI): nLUC and cLUC fusions co-infiltrated into 4-week-old Nicotiana benthamiana leaves, 3 days, 1 mM D-luciferin, CCD camera.

B1: MORF2-HA (protein, UniProt O22793 49-219)
chain: CGANRSGSTYSPLNSGSNFSDRPPTEMAPLFPGCDYEHWLIVMDKPGGEGATKQQMIDCYIQTLAKVVGSEEEAKKRIYNVSCERYLGFGCEIDEETSTKLEGLPGVLFVLPDSYVDPENKDYGAELFVNGEIVQRSPERQRRVEPQPQRAQDRPRYNDRTRYSRRRENTR
As for B1, the binding result in test [1] and in test [2] was “binds” in each case.

B2: MORF2-nLUC (in Arabidopsis protoplasts) (protein, UniProt O22793 49-219)
chain: CGANRSGSTYSPLNSGSNFSDRPPTEMAPLFPGCDYEHWLIVMDKPGGEGATKQQMIDCYIQTLAKVVGSEEEAKKRIYNVSCERYLGFGCEIDEETSTKLEGLPGVLFVLPDSYVDPENKDYGAELFVNGEIVQRSPERQRRVEPQPQRAQDRPRYNDRTRYSRRRENTR
On to B2, for which the binding result in test [3] was “binds”.

B3: MORF8-cLUC (protein, UniProt Q9LKA5 57-395)
chain: GGLVSVKGLSTQATSSSLNDPNPNWSNRPPKETILLDGCDFEHWLVVVEPPQGEPTRDEIIDSYIKTLAQIVGSEDEARMKIYSVSTRCYYAFGALVSEDLSHKLKELSNVRWVLPDSYLDVRNKDYGGEPFIDGKAVPYDPKYHEEWIRNNARANERNRRNDRPRNNDRSRNFERRRENMAGGPPPQRPPMGGPPPPPHIGGSAPPPPHMGGSAPPPPHMGQNYGPPPPNNMGGPRHPPPYGAPPQNNMGGPRPPQNYGGTPPPNYGGAPPANNMGGAPPPNYGGGPPPQYGAVPPPQYGGAPPQNNNYQQQGSGMQQPQYQNNYPPNRDGSGNPYQG
B3: the binding entry in test [4] and in test [5] was “binds” in each case.

B4: MORF8-HA (protein, UniProt Q9LKA5 57-395)
chain: GGLVSVKGLSTQATSSSLNDPNPNWSNRPPKETILLDGCDFEHWLVVVEPPQGEPTRDEIIDSYIKTLAQIVGSEDEARMKIYSVSTRCYYAFGALVSEDLSHKLKELSNVRWVLPDSYLDVRNKDYGGEPFIDGKAVPYDPKYHEEWIRNNARANERNRRNDRPRNNDRSRNFERRRENMAGGPPPQRPPMGGPPPPPHIGGSAPPPPHMGGSAPPPPHMGQNYGPPPPNNMGGPRHPPPYGAPPQNNMGGPRPPQNYGGTPPPNYGGAPPANNMGGAPPPNYGGGPPPQYGAVPPPQYGGAPPQNNNYQQQGSGMQQPQYQNNYPPNRDGSGNPYQG
Regarding B4, the binding result in test [1] and in test [2] was “binds” throughout.

B5: MORF8-nLUC (in Arabidopsis protoplasts) (protein, UniProt Q9LKA5 57-395)
chain: GGLVSVKGLSTQATSSSLNDPNPNWSNRPPKETILLDGCDFEHWLVVVEPPQGEPTRDEIIDSYIKTLAQIVGSEDEARMKIYSVSTRCYYAFGALVSEDLSHKLKELSNVRWVLPDSYLDVRNKDYGGEPFIDGKAVPYDPKYHEEWIRNNARANERNRRNDRPRNNDRSRNFERRRENMAGGPPPQRPPMGGPPPPPHIGGSAPPPPHMGGSAPPPPHMGQNYGPPPPNNMGGPRHPPPYGAPPQNNMGGPRPPQNYGGTPPPNYGGAPPANNMGGAPPPNYGGGPPPQYGAVPPPQYGGAPPQNNNYQQQGSGMQQPQYQNNYPPNRDGSGNPYQG
Turning to B5, the binding result in test [3] is reported as “binds”.
